Data as given in PubChem BioAssay AID624372 (Broad Institute, 2012).
Inconclusive results, whose numbers are uncertain, are shown with a selection of clear calls. The source made the active and inactive calls.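 How the source made its calls: active means fitted curve reaches -35% activity change below twice the top valid dose, with every replicate test called active; inconclusive means replicate tests disagree on the call; inactive means every replicate test called inactive.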

Assay: cytotoxicity in untransfected HEK293T cells – cell-based, CellTiter-Glo luminescence, dry powder, counter-screen for EBV LMP1 inhibitor project, dose response (AID 624372)
Settings: HEK293T viability, CellTiter-Glo ATP luminescence, 48 h; at 26 µM (top of the series) unless noted

SMILES | activity change, negative = cytotoxicity
CCCSc1nnc2c3ccccc3n(Cc3ccccc3)c2n1 | inconclusive: -16.7%
C/C(=N\NC(=S)N1CCCCCC1)c1ccccn1 | inconclusive: 27.5% [at 10 µM]
C[C@@H]1CN([C@@H](C)CO)C(=O)c2cc(NC(=O)Nc3ccc4c(c3)OCO4)ccc2O[C@H]1CN(C)CC1CCCCC1 | inactive: -4.73%
CC(C)=CCN(C(=O)C#Cc1ccccc1)[C@H](CO)c1ccccc1 | inconclusive: -59.5%
C[C@H](CO)N1C[C@H](C)[C@@H](CN(C)Cc2ccc(-c3ccccc3)cc2)Oc2ccc(NC(=O)Nc3cccc4ccccc34)cc2CC1=O | inconclusive: 41.1%
C/C(=N\NC(=S)N1CC2CCC(CC2)C1)c1ccccn1 | inconclusive: -51.4% [at 19.5 µM]
C/C(=N\NC(=S)Nc1ccccc1)c1ccccn1 | inconclusive: -2.71% [at 19.5 µM]
CCn1c2ccccc2c2cc(/C=N/n3cnnc3)ccc21 | inactive: 12.2%
C[C@H]1CCCCO[C@@H](CN(C)CC2CCCCC2)[C@@H](C)CN([C@@H](C)CO)C(=O)c2cc(NC(=O)C3CCCCC3)ccc2O1 | inconclusive: 0.788%
O=C(CCc1ccccc1)NC(c1cccs1)c1cc(Cl)c2cccnc2c1O (stereo unspecified) | inactive: 6.13%
C/C(=N\NC(=S)N1CCC1)c1ccccn1 | inconclusive: -27% [at 19.5 µM]
COc1ccccc1[C@]1(C)ON(c2ccccc2C(F)(F)F)C1=O | inactive: 21.8%
C/C(=N\NC(=S)Nc1ccccc1Cl)c1ccccn1 | inconclusive: 0.879% [at 19.5 µM]
C[C@H](CO)N1C[C@H](C)[C@@H](CN(C)CC2CCCCC2)OCCCC[C@H](C)Oc2ccc(NC(=O)Nc3cccc4ccccc34)cc2C1=O | inconclusive: -14.7%
COc1ccc(C(=O)Nc2ccc3[nH]ccc3c2)cc1 | inactive: 12.8%
C/C(=N\NC(=S)Nc1ccc(C)cc1)c1ccccn1 | inconclusive: -31.6% [at 19.5 µM]
Cc1ccc(S(=O)(=O)NC(CC(C)C)C(=O)NCC(c2ccco2)N2CCCCC2)cc1 (stereo unspecified) | inactive: 2.47%
CCc1sc(C(=O)Nc2ncccc2O)cc1C | inconclusive: -23.2%
Nc1ccn([C@@H]2O[C@H](CO)[C@@H](O)C2O)c(=O)n1 (stereo partly specified) | inconclusive: 23.8%
CC(=O)Nc1nc(C)c(-c2csc(Nc3ccc(O)cc3)n2)s1 | inactive: 2.53%
C[C@@H]1CN([C@@H](C)CO)C(=O)c2cccc(NC(=O)Nc3cccc4ccccc34)c2O[C@H]1CN(C)C(=O)Nc1ccc(C(F)(F)F)cc1 | inconclusive: -10.7%

Three compounds already listed, arranged by formula weight, largest number first:
SMILES | activity change, negative = cytotoxicity
O=C(CCc1ccccc1)NC(c1cccs1)c1cc(Cl)c2cccnc2c1O (stereo unspecified) | inactive: 6.13%
C/C(=N\NC(=S)Nc1ccc(C)cc1)c1ccccn1 | inconclusive: -31.6% [at 19.5 µM]
C/C(=N\NC(=S)N1CCCCCC1)c1ccccn1 | inconclusive: 27.5% [at 10 µM]
